Experimental data reported in PMC12680447.
These are yes or no findings as the source states them, for the method shown. Binding seen in cells or lysates may run through a third protein. Some results given as binding are weak or reduced against the parent protein; the word gives no strength.

By UniProt entry, the sequences of proteins in these tests, tags left out. Residues count along the entry.
UniProt P09055, residues 21-798: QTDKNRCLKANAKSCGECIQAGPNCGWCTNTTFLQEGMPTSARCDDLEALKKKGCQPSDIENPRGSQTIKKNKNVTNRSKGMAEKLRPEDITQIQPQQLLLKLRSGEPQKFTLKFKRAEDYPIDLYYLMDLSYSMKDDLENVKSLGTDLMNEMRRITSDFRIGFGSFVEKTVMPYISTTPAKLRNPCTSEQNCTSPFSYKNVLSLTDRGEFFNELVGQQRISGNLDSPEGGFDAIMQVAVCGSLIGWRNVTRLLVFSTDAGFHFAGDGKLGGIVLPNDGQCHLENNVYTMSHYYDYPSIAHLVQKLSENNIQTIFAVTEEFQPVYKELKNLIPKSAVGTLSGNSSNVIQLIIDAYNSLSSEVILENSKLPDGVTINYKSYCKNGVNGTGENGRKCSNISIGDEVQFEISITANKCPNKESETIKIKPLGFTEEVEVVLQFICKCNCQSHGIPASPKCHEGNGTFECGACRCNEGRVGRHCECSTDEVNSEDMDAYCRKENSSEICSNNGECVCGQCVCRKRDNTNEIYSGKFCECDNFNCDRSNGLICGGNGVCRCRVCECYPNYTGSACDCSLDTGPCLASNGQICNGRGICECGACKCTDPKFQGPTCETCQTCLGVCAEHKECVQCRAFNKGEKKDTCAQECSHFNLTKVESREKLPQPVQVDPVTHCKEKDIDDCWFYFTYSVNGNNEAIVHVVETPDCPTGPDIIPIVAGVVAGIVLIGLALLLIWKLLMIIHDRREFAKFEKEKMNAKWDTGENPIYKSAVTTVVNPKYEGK

Biological target: T1, decorin (mouse (endogenous in NOR-10)) (UniProt P28654)
T1 sequence: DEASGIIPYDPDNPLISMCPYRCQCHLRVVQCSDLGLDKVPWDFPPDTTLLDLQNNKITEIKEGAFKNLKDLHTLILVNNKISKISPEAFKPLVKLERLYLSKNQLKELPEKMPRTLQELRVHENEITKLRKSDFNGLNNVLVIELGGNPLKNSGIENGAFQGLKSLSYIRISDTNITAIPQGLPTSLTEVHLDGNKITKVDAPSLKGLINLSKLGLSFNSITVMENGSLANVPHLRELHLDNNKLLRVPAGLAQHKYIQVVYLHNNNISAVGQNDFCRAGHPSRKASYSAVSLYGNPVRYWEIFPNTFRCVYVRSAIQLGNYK
Assay: co-IP; lysate of NOR-10 cells (1 mg total protein) with 3 μg anti-decorin overnight at 4°C, Protein A/G magnetic beads, Western blotting with anti-ITGB1; input as positive control

## integrin β1 (from UniProt P09055 21-798) (receptor)
  binding: binds
